The other results are listed elsewhere or left out. Shown are side measurements of this screen, not its main read-out; they come without a call. The list favours compounds with an active or inconclusive main result. Potencies come from curve fits of mixed quality, noted in brackets.
Assay: qHTS Assay for Lipid Storage Modulators in Drosophila S3 Cells;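 on cell number change: cells counted by Cell Tracker Red CMTPX staining in the red channel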
Settings: BODIPY lipid droplet fluorescence, 18-24 h; for cell number change: measured here: cell count max response, cells fed with added oleic acid
Method in brief: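 Drosophila S3 cells loaded with oleic acid (400 uM, as added) and compounds at several concentrations; lipid droplets imaged by 488-nm laser-scanning cytometry, 500–530 nm intensity and object ratio to cell channel. Percent activity normalized to 20 uM Triacsin C.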

[1] = measured here: cell number channel AC50, cells fed with added oleic acid
[2] = measured here: lipid fluorescence (Fed channel) AC50, cells fed with added oleic acid

Structure (SMILES) | cell number change [%] | AC50 [1] | AC50 [2]
Cc1ccc(N=Nc2c(O)n(CN3CCOCC3)c3ccccc23)cc1 | 49.1 | 29.1 µM [rising, single point] | 23.1 µM [falling, single point]
CNc1nc2c(c(=O)n(C)c(=O)n2C)n1CCCc1ccccc1 | -40.2 | 11.6 µM [falling, partial curve] | 0.146 µM [falling, full curve, poor fit]
O=C(N/N=C/c1ccc(Cl)c([N+](=O)[O-])c1)c1cc(-c2ccc3c4c(cccc24)CC3)n[nH]1 | -5.17 |  | 32.6 µM [falling, single point]
O=C(NCCc1ccccc1Cl)C1CCC(=O)N(Cc2ccc(Cl)cc2)C1 (centres undefined) | 4.88 |  | 5.17 µM [falling, partial curve, poor fit]
CC1SCC(=O)N(CC(=O)Nc2ccc3c(c2)OCCO3)C1=O (centres undefined) | -5.6 |  | 
CNc1nnc(CSc2nc(C)cc(C)n2)s1 | 9.17 |  | 10.3 µM [rising, single point]
CC(=O)OCC(OC(C)=O)C(OC(C)=O)C(OC(C)=O)C(=O)Nc1ccc(C)cc1 (centres undefined) |  | 2.91 µM [falling, single point] | 
COc1ccc(CCNC(=O)Cn2cccc2C(=O)c2ccccc2)cc1OC |  |  | 0.206 µM [falling, full curve]
CCCn1c(N)c(C(=O)CSc2ncc(C(F)(F)F)cc2Cl)c(=O)[nH]c1=O | -6.83 | 1.64 µM [falling, partial curve, poor fit] | 2.91 µM [falling, partial curve]
Cc1cc(C)cc(NC(=O)CCN2C(=O)c3ccccc3S2(=O)=O)c1 | 15.9 |  | 
COc1ccc(CN2CCN(Cc3c[nH]c4ccccc34)CC2)cc1 | 12.5 |  | 
COc1cccc(NC(=O)N2CCN(c3nnnn3-c3ccccc3)CC2)c1 | 10.4 |  | 0.206 µM [falling, full curve, poor fit]
Cc1nc(C(=O)NC2CCCCC2)sc1C1(C)CC(c2cccc([N+](=O)[O-])c2)=NO1 (centres undefined) |  |  | 29.1 µM [rising, single point]
O=C(CN1c2cccc3cccc(c23)S1(=O)=O)Nc1ccccc1 | 16.8 |  | 
Cc1ccc(OCc2ccc(C(=O)Nc3nccs3)o2)cc1 | 56.2 | 11.6 µM [rising, partial curve, poor fit] | 
O=C(c1csc2c1CCCC2)N1CCN(c2cccc(C(F)(F)F)c2)CC1 | 6.29 |  | 
CCCOC(=O)c1[nH]c2c(c1C)C(=O)CC(c1ccc(OC)c(OC)c1)C2 (centres undefined) | 7.26 |  | 1.46 µM [rising, partial curve]
C/C(=N\NC(=O)C1CCCC1)c1ccc(C(C)C)cc1 | -20.1 |  | 
O=C1C2CCCN2C(c2cccc(F)c2)N1c1cccc(Cl)c1 (centres undefined) | -3.04 |  | 0.116 µM [falling, full curve, poor fit]
CCc1cc2c(CN3CCN(CC)CC3)cc(=O)oc2cc1O | 9.63 |  | 10.3 µM [falling, partial curve, poor fit]

Whole records from above.
O=C(NCCc1ccccc1Cl)C1CCC(=O)N(Cc2ccc(Cl)cc2)C1 (centres undefined) in the list: cell number change [%]: 4.88; AC50 [2]: 5.17 µM [falling, partial curve, poor fit]
Cc1ccc(OCc2ccc(C(=O)Nc3nccs3)o2)cc1 in the list: cell number change [%]: 56.2; AC50 [1]: 11.6 µM [rising, partial curve, poor fit]

Remaining list, next part

Structure (SMILES) | cell number change [%] | AC50 [1] | AC50 [2]
Cc1ccc(C(=O)c2sc3nsc(C)c3c2N)cc1 |  |  | 6.51 µM [rising, single point]
CCOC(=O)CSC1=NN2CCS(=O)(=O)N=C2S1 | -17.8 | 1.16 µM [falling, single point] | 1.46 µM [falling, partial curve, poor fit]
N/C(=N\OS(=O)(=O)c1cccc([N+](=O)[O-])c1)c1ccncc1 | -1.5 | 1.3 µM [falling, full curve, poor fit] | 0.164 µM [falling, full curve]
Cc1nc2sc3c(c2c(=O)o1)CC(C)(C)OC3 | -11.4 | 2.06 µM [falling, partial curve] | 
COc1ccc(C(=S)NC2CCCCC2)cc1 | -17 |  | 0.082 µM [falling, full curve, poor fit]
O=C(CN1C(=O)C2C3C=CC(C4CC34)C2C1=O)NCc1ccco1 (centres undefined) | 2.23 |  | 
N=C1/C(=C/c2ccc(OCc3ccccc3F)cc2)C(=O)N=C2SC(CC(=O)N3CCOCC3)=NN12 | 22.2 |  | 0.92 µM [rising, full curve]
Cc1ccc(C(=O)Nc2ccccc2C(=O)N2CC3(C)CC2CC(C)(C)C3)cc1 (centres undefined) | -11.6 |  | 8.2 µM [falling, partial curve, poor fit]
CCOC(=S)SCC(=O)Nc1nccs1 | 24.6 |  | 
Cc1ccc(S(=O)(=O)/N=C/c2ccc(N(C)C)cc2)cc1 | -10.4 | 0.731 µM [rising, single point] | 
COc1ccc(NC(=O)/C(Cl)=C(/Cl)S(=O)Cc2ccc(Cl)cc2)cn1 (centres undefined) | -68.7 | 2.91 µM [falling, full curve, poor fit] | 3.26 µM [falling, partial curve, poor fit]
COc1cc2c(-c3ccc4cc[nH]c4c3)c(-c3ccsc3)oc(=O)c2cc1OC | -20.6 |  | 3.66 µM [rising, single point]
O=C(CSc1nc2c(c(=O)[nH]1)CCC2)Nc1ccccc1Cl | 20.9 |  | 6.51 µM [rising, single point]
O=C1C=C(c2ccccc2)C[C@@H](c2ccc3c(c2)OCO3)C1 | -8.78 |  | 
CNC(=O)N(O)C1N(c2ccccc2)C(=S)SC1(C)C (centres undefined) | 14.1 | 6.51 µM [falling, single point] | 6.51 µM [falling, single point]
Cc1ccc(N(C)S(=O)(=O)c2cccc(C(=O)NCC(c3ccco3)N3CCCC3)c2)cc1 (centres undefined) |  |  | 6.51 µM [falling, partial curve]
Cc1ccc(CCNC(=O)CCc2nc3ccccc3[nH]2)cc1 | -4.13 |  | 23.1 µM [falling, partial curve, poor fit]
COc1ccc(S(=O)(=O)N2CCCCCC2)cc1C(=O)N(C)Cc1cccc(OC)c1OC |  | 2.59 µM [rising, single point] | 
COc1ccccc1OCC(=O)OCC(=O)Nc1sccc1C(N)=O |  |  | 0.116 µM [falling, partial curve, poor fit]

From PubChem BioAssay AID2685 (National Center for Advancing Translational Sciences (NCATS), 2010)
